Assay results: PMC4515320
No constants are given. Whether binding was seen depends on the method and setting. In cells and extracts the contact can be indirect. A yes stands for co-enrichment or nearness to the bait. Other partners may have been found.

Sequences of proteins named here, by UniProt entry; tags and fusion partners are left off. Residues count along the entry.
UniProt P06240: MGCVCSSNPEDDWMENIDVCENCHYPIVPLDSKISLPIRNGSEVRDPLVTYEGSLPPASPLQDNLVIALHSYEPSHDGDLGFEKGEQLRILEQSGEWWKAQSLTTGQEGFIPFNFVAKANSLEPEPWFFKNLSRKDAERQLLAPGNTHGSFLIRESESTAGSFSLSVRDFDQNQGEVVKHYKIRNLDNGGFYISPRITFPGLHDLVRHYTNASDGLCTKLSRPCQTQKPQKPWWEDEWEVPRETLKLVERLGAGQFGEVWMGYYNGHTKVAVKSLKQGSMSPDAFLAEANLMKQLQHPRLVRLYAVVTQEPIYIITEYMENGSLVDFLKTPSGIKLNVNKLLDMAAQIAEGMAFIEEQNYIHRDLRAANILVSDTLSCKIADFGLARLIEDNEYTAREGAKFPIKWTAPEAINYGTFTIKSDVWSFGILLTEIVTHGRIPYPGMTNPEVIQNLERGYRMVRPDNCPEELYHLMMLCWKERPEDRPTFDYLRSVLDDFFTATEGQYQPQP
UniProt P09405: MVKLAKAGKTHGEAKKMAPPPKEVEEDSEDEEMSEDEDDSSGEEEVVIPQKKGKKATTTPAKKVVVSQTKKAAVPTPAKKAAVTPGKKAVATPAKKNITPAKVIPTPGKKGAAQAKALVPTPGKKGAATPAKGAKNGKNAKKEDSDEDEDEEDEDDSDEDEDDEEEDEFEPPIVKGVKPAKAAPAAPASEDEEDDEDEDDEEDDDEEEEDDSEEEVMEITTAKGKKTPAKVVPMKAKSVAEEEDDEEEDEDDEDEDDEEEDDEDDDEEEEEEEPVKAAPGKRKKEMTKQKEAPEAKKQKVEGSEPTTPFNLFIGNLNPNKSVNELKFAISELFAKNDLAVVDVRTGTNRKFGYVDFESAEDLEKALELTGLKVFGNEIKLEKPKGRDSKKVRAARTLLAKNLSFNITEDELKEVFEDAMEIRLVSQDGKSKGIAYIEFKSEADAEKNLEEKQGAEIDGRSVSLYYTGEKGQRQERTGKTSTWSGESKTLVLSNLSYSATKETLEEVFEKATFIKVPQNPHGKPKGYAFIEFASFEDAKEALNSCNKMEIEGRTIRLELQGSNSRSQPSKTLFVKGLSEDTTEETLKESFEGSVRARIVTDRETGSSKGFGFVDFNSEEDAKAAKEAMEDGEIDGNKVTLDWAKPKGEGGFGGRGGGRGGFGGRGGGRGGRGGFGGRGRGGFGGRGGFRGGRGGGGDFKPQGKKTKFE
UniProt Q5NCP0, residues 24-784: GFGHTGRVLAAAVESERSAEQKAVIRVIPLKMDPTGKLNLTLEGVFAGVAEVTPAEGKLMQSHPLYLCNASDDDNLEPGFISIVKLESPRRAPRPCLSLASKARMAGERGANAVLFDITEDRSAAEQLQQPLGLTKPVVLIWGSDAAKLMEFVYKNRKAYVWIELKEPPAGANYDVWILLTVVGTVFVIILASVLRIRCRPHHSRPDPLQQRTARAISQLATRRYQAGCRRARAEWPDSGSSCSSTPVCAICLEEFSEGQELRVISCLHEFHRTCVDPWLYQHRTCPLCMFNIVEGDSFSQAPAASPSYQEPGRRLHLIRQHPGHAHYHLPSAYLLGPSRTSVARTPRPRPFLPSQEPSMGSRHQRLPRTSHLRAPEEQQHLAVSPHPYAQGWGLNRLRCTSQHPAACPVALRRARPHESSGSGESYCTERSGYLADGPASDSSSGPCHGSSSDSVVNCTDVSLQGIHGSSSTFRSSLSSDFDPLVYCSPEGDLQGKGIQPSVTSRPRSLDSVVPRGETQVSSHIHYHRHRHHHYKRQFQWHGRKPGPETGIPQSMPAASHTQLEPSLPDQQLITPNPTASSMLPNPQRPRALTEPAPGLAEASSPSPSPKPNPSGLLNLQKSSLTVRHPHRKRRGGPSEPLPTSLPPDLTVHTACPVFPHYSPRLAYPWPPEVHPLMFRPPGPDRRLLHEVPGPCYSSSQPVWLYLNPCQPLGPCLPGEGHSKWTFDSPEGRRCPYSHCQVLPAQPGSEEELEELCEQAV

Molecular target: Lymphocyte-specific protein tyrosine kinase (Lck), mouse (mouse (endogenous in LSTRA)) (UniProt P06240)
Assay: affinity purification with mass spectrometry; LSTRA whole cell lysate in 1 % NP-40 lysis buffer, 500 ug protein immunoprecipitated with 2 ug anti-Lck antibody or control mouse IgG overnight; eight bands specific to the Lck immunoprecipitate cut from a 4-20 % SDS-PAGE gel; LC-ESI-MS/MS

| binding | Molecule |
| --- | --- |
| binds | Nucleolin (from UniProt P09405 1-707) |
| binds | E3 Ubiquitin-protein ligase RNF43 (from UniProt Q5NCP0 24-784) (enzyme) |
| binds | Transcription initiation factor TFIID subunit 12 (protein, UniProt Q8VE65 1-161) MNQFGPSALINLSSFSSVKPEPASTPPQGSMANSTTVGKIAGTPGTGGRLSPENNQVLTKKKLQDLVREVDPNEQLDEDVEEMLLQIADDFIESVVTAACQLARHRKSSTLEVKDVQLHLERQWNMWIPGFGSEEIRPYKKACTTEAHKQRMALIRKTTKK |
| binds | Hermansky-Pudlak syndrome 6 protein homolog (protein, UniProt Q8BLY7 1-805) MKRAGTLRLLSDLSNFTGAARLRELLAGDPAVLVRCSPDGRHLLLLRPPGSPAPQLLVAVRGPGLPLERAWPEGDPSPLDVFFVPWLARPALILVWESGLAEVWGVGMEPGWKLLQSTELCPDGGARVMAVAATRGRLVWCEERQPGVKDQPEQLSTAFSHRVCFKTLETSGEAGTKLGCTHILLHHCPLFGLIASRKDLFLVPTTNTWSGVAHLLLIWSPSKGKVIVAAPSLGLSHSKSLNPKQGDTWDFRTLLRGLPGFLSPREPLAVHTWAPSSQGLLLLDLKGKVSLVQCHGGTRTVGILQEAPVSLKGSAALGTFHGTLACVLGSTLELLDMSSGRLLEKKVLSTDRVHLLEPPAPGMKNEEELETRGALRLLSALGLFCVCWETPQGLELPSDKDLVFEEACGYYQRRSLRGTQLTPEELRHNSMFRAPQALASILQGHLPPSTLLTTLRAELRDYRSIEQLKAQLVAGDDEEAGWTELAEHEVARLLRTQLTGDQLAQFNTIFQALPTAAWGATLQALQLQPDRSGRLRSQAPPDVWKKVLRAPTAGKEHPNGILPPFELLCQCLGQLEPQWLPPFVKLAQQQGGPGWGAEGPSLPLYRRALAVLGEEGKRPEALELELLLGSGRPKAVLQAVRQLIKKEEWERALEAGLALDASSPLLRSEIFKLLLAEFAQHRRLDAHLPLLCRLCPPEVAPHELLLLLRTHLPDDEGTTPFPEPGAEPPLTVGLVRALLEQTGAQGRPSGPVQSTYEDILWDPGTPPPTPPRGPTASLPASDHPGQEAWVPPGQGLGAADVGVHL |
| binds | B-cell stimulating factor 3 (protein, UniProt Q9QZM3 28-225) LNRTGDPGPGPSIQKTYDLTRYLEHQLRSLAGTYLNYLGPPFNEPDFNPPRLGAETLPRATVNLEVWRSLNDRLRLTQNYEAYSHLLCYLRGLNRQAATAELRRSLAHFCTSLQGLLGSIAGVMATLGYPLPQPLPGTEPAWAPGPAHSDFLQKMDDFWLLKELQTWLWRSAKDFNRLKKKMQPPAASVTLHLEAHGF |
| binds | GTP-binding protein 2 (protein, UniProt Q3UJK4 1-602) MDSRVSELFGGCCRPGGGPAMGGNLKARGAGGSSSCGGPKGKKKNGRNRGGKANNPPYLPPEAEDGNIEYKLKLVNPSQYRFEHLVTQMKWRLQEGRGEAVYQIGVEDNGLLVGLAEEEMRASLKTLHRMAEKVGADITVLREREVDYDSDVPRKITEVLVRKVPDNQQFLDLRVAVLGNVDSGKSTLLGVLTQGELDNGRGRARLNLFRHLHEIQSGRTSSISFEILGFNSKGEVVNYSDSRTAEEICESSSKMITFIDLAGHHKYLHTTIFGLTSYCPDCALLLVSANTGIAGTTREHLGLALALKVPFFIVVSKVDLCAKTTVERTVRQLERVLKQPGCHKVPMLVTSEDDAVTAAQQFAQSPNVTPIFTLSSVSGESLDLLKVFLNILPPLTNSKEQEELMQQLTEFQVDEIYTVPEVGTVVGGTLSSGICREGDQLVVGPTDDGCFLELRVCSIQRNRSACRVLRAGQAATLALGDFDRALLRKGMVMVSPEMNPTICSVFEAEIVLLFHATTFRRGFQVTVHVGNVRQTAVVEKIHAKDKLRTGEKAVVRFRFLKHPEYLKVGAKLLFREGVTKGIGHVTDVQAITAGEAQATMGF |
| binds | ADP/ATP translocase 1 (protein, UniProt P48962 1-298) MGDQALSFLKDFLAGGIAAAVSKTAVAPIERVKLLLQVQHASKQISAEKQYKGIIDCVVRIPKEQGFLSFWRGNLANVIRYFPTQALNFAFKDKYKQIFLGGVDRHKQFWRYFAGNLASGGAAGATSLCFVYPLDFARTRLAADVGKGSSQREFNGLGDCLTKIFKSDGLKGLYQGFSVSVQGIIIYRAAYFGVYDTAKGMLPDPKNVHIIVSWMIAQSVTAVAGLVSYPFDTVRRRMMMQSGRKGADIMYTGTLDCWRKIAKDEGANAFFKGAWSNVLRGMGGAFVLVLYDEIKKYV |
| binds | E3 ubiquitin-protein ligase RNF181 (enzyme, UniProt Q9CY62 1-165) MASYFDEHDCEPLNPEREARNNMLLELARRVRGAWSWAPGGRSLFNRMDFEDLGLVDWEHHLPPPAAKAVVESLPRTVISSAKADLKCPVCLLEFEAEETVIEMPCHHLFHSNCILPWLSKTNSCPLCRHELPTDDDSYEEHKKDKARRQQQQHRLENLHGAMYT |
| binds | ADP/ATP translocase 2 (protein, UniProt P51881 1-298) MTDAAVSFAKDFLAGGVAAAISKTAVAPIERVKLLLQVQHASKQITADKQYKGIIDCVVRIPKEQGVLSFWRGNLANVIRYFPTQALNFAFKDKYKQIFLGGVDKRTQFWRYFAGNLASGGAAGATSLCFVYPLDFARTRLAADVGKAGAEREFKGLGDCLVKIYKSDGIKGLYQGFNVSVQGIIIYRAAYFGIYDTAKGMLPDPKNTHIFISWMIAQSVTAVAGLTSYPFDTVRRRMMMQSGRKGTDIMYTGTLDCWRKIARDEGSKAFFKGAWSNVLRGMGGAFVLVLYDEIKKYT |
| binds | CR6-interacting factor 1 (CRIF1), mouse (protein, UniProt Q9CR59 1-222) MAALAMRSGYLLRLSVALGPRSRSYRAPPPPRRRPGPHSPDPENLLTPRWQLTPRYVAKQFGRHGAISGVPPASLWPTPEQLRELEAEEQEWYPSLATMQESLRLQQQALEARRQAREQRIAECMAKMPQMIENWRKQKRERWEKIQADKERRARLQAEAQERLGYHVDPRSARFQELLQDLDKQQRKRLKEERQRQKKEARIAAMASAEAQDSAVSGEPSS |
| binds | ADP/ATP translocase 4 (protein, UniProt Q3V132 1-320) MSNESSKKQSSKKALFDPVSFSKDLLAGGVAAAVSKTAVAPIERVKLLLQVQASSKQISPEARYKGMLDCLVRIPREQGFLSYWRGNLANVIRYFPTQALNFAFKDKYKELFMSGVNKEKQFWRWFLANLASGGAAGATSLCVVYPLDFARTRLGVDIGKGPEQRQFTGLGDCIMKIAKSDGLIGLYQGFGVSVQGIIVYRASYFGAYDTVKGLLPKPKETPFLVSFIIAQIVTTCSGILSYPFDTVRRRMMMQSGESDRQYKGTIDCFLKIYRHEGVPAFFRGAFSNILRGTGGALVLVLYDKIKEFLNIDVGGSSSGD |
